Like-named read-outs stand apart in the source and are kept apart here. No constants are given. Whether binding was seen depends on the method and setting. In cells and extracts the contact can be indirect. These calls come from enrichment with a bait or labelling near it, and not all partners need be listed. For some of these results: Sequences can lack the tags named with a protein.

Protein sequences, listed by entry. Tags and fused reporters are not part of them.
UniProt Q6PDQ2: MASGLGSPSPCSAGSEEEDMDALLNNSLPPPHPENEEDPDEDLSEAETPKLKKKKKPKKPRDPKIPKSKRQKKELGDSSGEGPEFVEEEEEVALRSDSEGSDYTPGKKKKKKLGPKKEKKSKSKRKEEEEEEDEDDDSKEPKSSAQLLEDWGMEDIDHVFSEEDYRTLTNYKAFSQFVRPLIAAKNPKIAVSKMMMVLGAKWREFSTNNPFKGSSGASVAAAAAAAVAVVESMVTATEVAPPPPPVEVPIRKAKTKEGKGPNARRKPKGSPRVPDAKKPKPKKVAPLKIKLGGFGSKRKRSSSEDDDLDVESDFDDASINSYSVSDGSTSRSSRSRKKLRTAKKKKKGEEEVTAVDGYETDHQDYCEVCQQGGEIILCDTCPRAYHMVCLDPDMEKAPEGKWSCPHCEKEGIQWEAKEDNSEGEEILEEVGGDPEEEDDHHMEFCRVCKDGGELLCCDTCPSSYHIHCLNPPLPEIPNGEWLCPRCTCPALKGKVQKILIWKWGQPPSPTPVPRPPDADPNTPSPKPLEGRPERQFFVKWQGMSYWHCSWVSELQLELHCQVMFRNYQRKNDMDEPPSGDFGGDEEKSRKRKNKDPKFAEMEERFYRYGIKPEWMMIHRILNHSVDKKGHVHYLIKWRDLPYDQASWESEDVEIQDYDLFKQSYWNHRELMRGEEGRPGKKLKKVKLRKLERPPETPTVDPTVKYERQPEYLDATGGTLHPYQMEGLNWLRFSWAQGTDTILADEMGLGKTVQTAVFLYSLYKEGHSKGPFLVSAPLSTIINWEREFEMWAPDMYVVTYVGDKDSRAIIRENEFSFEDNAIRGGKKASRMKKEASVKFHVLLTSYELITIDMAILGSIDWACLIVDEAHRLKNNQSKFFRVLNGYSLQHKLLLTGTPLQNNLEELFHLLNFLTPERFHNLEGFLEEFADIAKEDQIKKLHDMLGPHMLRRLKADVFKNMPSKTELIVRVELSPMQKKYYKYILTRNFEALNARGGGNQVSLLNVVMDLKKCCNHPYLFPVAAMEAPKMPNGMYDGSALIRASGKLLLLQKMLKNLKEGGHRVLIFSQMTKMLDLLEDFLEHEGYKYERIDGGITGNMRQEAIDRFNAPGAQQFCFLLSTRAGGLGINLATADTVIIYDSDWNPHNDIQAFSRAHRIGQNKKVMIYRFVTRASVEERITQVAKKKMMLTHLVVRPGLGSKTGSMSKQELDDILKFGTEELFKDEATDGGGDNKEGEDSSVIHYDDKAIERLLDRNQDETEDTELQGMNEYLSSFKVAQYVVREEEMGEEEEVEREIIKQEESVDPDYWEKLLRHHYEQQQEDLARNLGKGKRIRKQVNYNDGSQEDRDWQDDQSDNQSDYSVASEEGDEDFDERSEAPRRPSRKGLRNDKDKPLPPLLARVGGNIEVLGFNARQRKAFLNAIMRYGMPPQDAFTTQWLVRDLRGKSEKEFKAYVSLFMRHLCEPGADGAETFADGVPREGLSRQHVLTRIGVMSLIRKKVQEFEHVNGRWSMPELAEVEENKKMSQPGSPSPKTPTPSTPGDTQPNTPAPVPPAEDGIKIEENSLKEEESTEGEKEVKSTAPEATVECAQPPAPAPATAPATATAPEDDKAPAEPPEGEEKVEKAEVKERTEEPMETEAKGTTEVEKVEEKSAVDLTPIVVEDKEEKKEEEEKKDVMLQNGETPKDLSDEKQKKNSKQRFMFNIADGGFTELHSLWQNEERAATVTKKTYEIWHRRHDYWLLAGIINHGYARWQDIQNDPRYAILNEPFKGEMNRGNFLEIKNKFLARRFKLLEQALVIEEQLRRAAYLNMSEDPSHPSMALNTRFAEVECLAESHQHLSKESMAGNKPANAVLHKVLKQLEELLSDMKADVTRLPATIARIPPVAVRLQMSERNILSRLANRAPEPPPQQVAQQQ
UniProt P70288: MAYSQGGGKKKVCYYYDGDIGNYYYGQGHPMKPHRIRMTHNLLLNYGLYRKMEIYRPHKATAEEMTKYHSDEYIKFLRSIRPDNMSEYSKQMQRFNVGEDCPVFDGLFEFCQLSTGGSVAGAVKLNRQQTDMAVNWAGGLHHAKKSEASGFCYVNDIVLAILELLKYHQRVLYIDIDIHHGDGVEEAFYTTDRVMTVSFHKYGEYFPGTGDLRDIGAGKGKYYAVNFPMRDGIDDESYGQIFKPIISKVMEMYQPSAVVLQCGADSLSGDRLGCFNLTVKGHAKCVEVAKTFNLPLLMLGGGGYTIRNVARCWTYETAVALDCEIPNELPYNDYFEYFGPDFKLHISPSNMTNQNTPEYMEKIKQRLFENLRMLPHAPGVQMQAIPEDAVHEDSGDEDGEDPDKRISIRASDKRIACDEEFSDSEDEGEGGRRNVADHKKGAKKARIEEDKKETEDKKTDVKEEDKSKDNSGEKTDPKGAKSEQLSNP
UniProt O09106: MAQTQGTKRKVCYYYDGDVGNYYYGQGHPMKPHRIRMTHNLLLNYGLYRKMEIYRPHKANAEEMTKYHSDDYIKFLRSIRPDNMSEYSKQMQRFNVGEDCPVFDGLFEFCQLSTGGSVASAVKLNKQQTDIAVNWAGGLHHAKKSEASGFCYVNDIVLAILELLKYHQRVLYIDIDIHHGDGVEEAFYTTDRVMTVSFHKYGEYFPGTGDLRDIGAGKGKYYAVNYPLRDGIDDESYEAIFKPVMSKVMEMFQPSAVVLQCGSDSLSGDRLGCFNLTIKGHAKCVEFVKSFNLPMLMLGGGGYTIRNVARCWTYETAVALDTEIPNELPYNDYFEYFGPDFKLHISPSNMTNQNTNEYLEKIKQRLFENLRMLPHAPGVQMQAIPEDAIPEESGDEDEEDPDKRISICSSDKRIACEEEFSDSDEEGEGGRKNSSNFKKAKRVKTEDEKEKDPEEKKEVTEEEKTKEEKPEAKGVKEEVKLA
UniProt Q8K4B0: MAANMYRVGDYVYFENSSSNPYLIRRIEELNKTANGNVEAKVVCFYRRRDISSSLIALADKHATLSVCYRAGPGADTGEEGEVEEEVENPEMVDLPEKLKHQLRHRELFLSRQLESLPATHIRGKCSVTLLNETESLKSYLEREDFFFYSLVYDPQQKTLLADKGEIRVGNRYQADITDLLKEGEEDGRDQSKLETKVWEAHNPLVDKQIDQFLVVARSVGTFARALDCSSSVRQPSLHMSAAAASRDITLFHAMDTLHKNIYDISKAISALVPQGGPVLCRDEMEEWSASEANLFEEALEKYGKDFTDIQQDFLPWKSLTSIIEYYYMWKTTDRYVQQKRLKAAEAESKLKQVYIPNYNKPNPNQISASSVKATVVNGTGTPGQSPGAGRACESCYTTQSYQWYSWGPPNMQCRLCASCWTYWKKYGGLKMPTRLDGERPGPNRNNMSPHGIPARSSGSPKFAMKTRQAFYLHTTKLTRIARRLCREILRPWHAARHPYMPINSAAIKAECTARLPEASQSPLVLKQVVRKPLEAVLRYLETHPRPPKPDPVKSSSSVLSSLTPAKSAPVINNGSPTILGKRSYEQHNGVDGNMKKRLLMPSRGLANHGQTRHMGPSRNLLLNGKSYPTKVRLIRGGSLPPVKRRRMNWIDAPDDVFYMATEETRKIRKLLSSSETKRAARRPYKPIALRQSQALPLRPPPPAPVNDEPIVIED
UniProt Q9R190: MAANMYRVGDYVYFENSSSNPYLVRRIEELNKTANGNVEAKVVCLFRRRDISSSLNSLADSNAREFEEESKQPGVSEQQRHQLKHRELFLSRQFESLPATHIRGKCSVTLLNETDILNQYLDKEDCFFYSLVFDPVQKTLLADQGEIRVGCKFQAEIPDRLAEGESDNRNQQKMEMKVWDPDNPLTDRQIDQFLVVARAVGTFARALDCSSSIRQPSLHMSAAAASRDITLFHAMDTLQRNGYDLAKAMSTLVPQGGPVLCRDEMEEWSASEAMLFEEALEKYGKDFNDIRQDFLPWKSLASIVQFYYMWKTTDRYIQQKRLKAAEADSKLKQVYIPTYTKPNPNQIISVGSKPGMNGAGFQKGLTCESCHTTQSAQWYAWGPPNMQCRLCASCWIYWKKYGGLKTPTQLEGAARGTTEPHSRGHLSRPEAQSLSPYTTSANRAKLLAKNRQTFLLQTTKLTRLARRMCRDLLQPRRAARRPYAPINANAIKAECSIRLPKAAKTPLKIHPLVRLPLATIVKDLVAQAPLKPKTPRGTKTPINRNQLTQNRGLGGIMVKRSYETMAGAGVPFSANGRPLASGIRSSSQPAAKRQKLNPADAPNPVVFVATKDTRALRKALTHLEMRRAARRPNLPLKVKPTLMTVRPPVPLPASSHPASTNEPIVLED
UniProt Q924K8: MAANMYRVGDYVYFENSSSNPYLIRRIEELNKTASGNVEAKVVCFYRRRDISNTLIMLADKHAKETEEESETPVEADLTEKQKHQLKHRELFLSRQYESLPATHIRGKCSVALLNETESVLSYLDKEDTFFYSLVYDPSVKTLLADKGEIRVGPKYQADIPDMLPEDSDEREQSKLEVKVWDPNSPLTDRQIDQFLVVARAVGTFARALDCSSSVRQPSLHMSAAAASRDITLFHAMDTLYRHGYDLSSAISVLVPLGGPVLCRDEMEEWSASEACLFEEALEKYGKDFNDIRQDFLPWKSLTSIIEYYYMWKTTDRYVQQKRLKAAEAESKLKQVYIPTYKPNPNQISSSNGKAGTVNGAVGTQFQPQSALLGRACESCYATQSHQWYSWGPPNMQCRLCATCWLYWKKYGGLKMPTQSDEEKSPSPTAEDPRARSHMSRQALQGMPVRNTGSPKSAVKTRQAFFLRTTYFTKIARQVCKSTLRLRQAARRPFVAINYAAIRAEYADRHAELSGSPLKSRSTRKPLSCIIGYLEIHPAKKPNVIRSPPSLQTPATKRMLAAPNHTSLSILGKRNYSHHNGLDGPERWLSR
UniProt P52946: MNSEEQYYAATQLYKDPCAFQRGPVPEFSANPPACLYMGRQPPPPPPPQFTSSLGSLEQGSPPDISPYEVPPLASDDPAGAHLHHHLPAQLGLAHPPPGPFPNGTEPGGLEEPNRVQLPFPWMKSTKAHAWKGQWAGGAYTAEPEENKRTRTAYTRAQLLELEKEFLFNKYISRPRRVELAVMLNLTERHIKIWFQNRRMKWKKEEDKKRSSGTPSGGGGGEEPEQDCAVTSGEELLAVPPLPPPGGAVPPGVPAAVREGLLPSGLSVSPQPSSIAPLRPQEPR

What all share (assay): affinity purification with mass spectrometry
Test [1] addresses T1, 3x Myc-NKX2.2 WT (full-length NKX2.2 with 3 myc epitope tags at the N-terminus) (UniProt P42586).
T1 sequence: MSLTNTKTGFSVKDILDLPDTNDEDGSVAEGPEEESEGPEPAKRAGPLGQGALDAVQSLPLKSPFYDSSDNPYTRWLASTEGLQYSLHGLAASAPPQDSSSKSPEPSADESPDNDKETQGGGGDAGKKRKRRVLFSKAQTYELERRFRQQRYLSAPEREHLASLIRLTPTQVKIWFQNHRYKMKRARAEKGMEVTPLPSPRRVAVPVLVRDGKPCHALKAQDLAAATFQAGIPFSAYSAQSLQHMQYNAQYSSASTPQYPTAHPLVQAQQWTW

The target in test [2] is Chromodomain Helicase DNA-binding Protein 4 (CHD4) (mouse (endogenous in MIN6)) (UniProt Q6PDQ2).
The target is the same in test [3]. This is another data set of the same source.

On to “Chromodomain Helicase DNA-binding Protein 4 (CHD4) (from UniProt Q6PDQ2 1-1915)”, for which the binding result in test [1] is given as “binds”. For the molecule DNMT1 (from UniProt P13864 1-1620), the binding entry in test [2] and in test [1] was “binds” in each case. For HDAC2 (from UniProt P70288 1-488), the binding result in test [1] is “binds”. The same measure, in the same setting: the entry for “Histone deacetylase 1 (HDAC1) (from UniProt O09106 1-482)” is “binds”.

Take MTA1 (from UniProt Q8K4B0 1-715): in test [2], the binding result is listed as “binds”. With MTA2 (from UniProt Q9R190 1-668), the binding entry in test [2] was “binds”. In the case of MTA3 (from UniProt Q924K8 1-591), the binding result in test [2] is “binds”. For “Pancreas Duodenum Homeobox1 (PDX1) (from UniProt P52946 1-284)”, the binding entry in test [1] was “binds”.

B1: endogenous NKX2.2 (protein, UniProt P42586 1-273)
chain: MSLTNTKTGFSVKDILDLPDTNDEDGSVAEGPEEESEGPEPAKRAGPLGQGALDAVQSLPLKSPFYDSSDNPYTRWLASTEGLQYSLHGLAASAPPQDSSSKSPEPSADESPDNDKETQGGGGDAGKKRKRRVLFSKAQTYELERRFRQQRYLSAPEREHLASLIRLTPTQVKIWFQNHRYKMKRARAEKGMEVTPLPSPRRVAVPVLVRDGKPCHALKAQDLAAATFQAGIPFSAYSAQSLQHMQYNAQYSSASTPQYPTAHPLVQAQQWTW
With B1, the binding entry in test [3] is recorded as “binds”.

Source of the values: article doi:10.1101/2025.06.16.659956.
